Source: US20240209089A1
Results are given in words; binding and its absence hold for the method and conditions named. Some results given as binding are weak or reduced against the parent protein; the word gives no strength. Sequences can lack the tags named with a protein.

Chains of the proteins cited; added tags and fusions are not shown. Residues count along the entry.
UniProt P01732, residues 22-182: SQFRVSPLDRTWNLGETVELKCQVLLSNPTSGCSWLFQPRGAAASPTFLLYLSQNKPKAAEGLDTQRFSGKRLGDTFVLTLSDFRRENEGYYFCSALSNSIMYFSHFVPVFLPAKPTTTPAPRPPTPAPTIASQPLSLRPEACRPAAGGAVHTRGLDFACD

Target: CD8α-cHis fusion protein (UniProt P01732)
Assay: BLI (ForteBio Octet), biotinylated antibody on SA sensor

- binding: binds
B1: C37-cHis antibody (VHH)
VHH: QLQLVESGGGLVQAGGSLRLSCAASGLTFEDYAIGWFRQAPGKEREGISCIRIYDGNTYSAESVKGRFTISSDNAKNQVYLQINTLKPEDTAVYYCAAGSYYSCSVYPDYDMDYWGKGTLVTVSS
